Earlier results in patent US11123309B2, “Methods for drug delivery, tumor imaging, and oxidative dehydrogenation using hierarchical ZSM-5 complex” (Imam Abdulrahman Bin Faisal University, priority 2018, dated 2021).

solubility in water: < 0.7 ng/mL
Compound: COC1=C(OC)C(=O)C(C/C=C(\C)CC/C=C(\C)CC/C=C(\C)CC/C=C(\C)CC/C=C(\C)CC/C=C(\C)CC/C=C(\C)CC/C=C(\C)CC/C=C(\C)CCC=C(C)C)=C(C)C1=O [Coenzyme Q10]
